Experimental data reported in patent US20160067305A1.
No constants are given. Whether binding was seen depends on the method and setting. Binding seen in cells or lysates may run through a third protein. Some entries that bind do so weakly or less than the wild type. Values belong to the substance of their own block, whether it stands above or below them.

Chains of the proteins cited; added tags and fusions are not shown. Lines headed by an entry give the natural chain unless they say otherwise; changes in a name come on top. Residues count along the entry.
UniProt Q96EB6: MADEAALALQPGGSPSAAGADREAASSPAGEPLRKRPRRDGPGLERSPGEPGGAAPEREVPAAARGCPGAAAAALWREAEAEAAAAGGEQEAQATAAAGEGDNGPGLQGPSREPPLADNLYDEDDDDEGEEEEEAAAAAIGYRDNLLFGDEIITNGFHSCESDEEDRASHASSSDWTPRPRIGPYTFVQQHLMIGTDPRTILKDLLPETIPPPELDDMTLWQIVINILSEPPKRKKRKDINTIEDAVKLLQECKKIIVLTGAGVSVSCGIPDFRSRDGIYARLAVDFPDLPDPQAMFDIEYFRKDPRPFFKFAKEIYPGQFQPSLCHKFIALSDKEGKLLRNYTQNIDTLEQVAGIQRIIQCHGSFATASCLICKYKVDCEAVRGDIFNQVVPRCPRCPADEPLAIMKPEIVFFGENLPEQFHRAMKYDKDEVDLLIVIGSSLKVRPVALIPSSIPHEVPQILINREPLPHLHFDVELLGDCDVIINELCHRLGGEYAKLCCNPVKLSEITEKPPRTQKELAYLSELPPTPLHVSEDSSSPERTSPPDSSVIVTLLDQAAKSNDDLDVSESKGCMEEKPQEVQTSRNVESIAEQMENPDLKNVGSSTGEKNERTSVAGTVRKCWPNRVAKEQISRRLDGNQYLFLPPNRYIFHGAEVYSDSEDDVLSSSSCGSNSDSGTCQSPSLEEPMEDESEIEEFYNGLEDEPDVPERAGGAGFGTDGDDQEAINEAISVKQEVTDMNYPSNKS
endogenous SIRT1 of HEK293 cells: residues 2-747 of Q96EB6
UniProt P02545, residues 1-646: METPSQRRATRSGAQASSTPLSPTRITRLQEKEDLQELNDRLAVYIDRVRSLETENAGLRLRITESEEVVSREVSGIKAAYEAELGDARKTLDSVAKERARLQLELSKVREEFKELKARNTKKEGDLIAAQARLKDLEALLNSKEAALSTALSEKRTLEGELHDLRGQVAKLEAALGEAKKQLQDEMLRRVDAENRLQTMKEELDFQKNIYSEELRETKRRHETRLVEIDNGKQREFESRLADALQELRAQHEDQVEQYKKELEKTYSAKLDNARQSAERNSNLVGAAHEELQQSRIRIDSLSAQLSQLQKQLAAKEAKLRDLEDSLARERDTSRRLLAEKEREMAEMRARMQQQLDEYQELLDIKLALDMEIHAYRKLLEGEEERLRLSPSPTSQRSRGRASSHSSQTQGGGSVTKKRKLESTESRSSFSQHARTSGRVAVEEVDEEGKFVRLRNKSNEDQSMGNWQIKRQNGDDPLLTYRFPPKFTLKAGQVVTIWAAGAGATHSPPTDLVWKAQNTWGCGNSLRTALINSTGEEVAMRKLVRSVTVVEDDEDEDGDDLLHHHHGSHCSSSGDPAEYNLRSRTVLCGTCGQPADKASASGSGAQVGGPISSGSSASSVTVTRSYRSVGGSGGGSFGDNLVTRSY
UniProt P48678, residues 1-662: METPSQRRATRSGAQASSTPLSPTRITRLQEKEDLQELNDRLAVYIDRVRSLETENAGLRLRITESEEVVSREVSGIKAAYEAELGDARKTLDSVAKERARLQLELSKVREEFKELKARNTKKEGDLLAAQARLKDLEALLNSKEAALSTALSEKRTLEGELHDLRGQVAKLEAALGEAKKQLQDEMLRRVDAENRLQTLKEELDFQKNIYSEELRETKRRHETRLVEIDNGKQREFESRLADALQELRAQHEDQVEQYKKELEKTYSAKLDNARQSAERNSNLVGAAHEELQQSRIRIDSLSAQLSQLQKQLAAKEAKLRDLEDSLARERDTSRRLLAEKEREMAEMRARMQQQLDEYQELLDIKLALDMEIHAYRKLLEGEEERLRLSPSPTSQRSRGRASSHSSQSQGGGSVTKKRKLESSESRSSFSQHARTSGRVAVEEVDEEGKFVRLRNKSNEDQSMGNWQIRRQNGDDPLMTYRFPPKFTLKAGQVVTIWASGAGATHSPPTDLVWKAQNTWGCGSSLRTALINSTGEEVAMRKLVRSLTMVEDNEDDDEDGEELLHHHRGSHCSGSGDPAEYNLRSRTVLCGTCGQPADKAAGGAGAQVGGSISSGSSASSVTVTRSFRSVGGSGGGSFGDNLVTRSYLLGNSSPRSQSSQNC

Tests used:
[1] = target: endogenous SIRT1 of HEK293 cells (UniProt Q96EB6); test: reciprocal co-immunoprecipitation of endogenous proteins, HEK293 cells (FIG. 1B)
[2] = target: endogenous SIRT1 of HEK293 cells (UniProt Q96EB6); test: reciprocal co-immunoprecipitation of endogenous proteins from HEK293 lysate (FIG. 1B)
[3] = target: recombinant human SIRT1 (human) (UniProt Q96EB6); test: in vitro pull-down of recombinant proteins (FIG. 1E)
[4] = target: recombinant human SIRT1 (human) (UniProt Q96EB6); test: in vitro pull-down of recombinant proteins with anti-lamin A antibody (FIG. 1E)
[5] = target: recombinant human SIRT1 (human) (UniProt Q96EB6); test: in vitro pull-down of recombinant proteins with anti-lamin A antibody (FIG. 11A)
[6] = target: recombinant human SIRT1 (human) (UniProt Q96EB6); test: in vitro co-immunoprecipitation with anti-lamin A/C antibody, with or without resveratrol (FIG. 3C)
[7] = target: FLAG-tagged SIRT1 (ectopically expressed in HEK293 cells) (UniProt Q96EB6); test: reciprocal co-immunoprecipitation in HEK293 cells expressing FLAG-SIRT1 (FIG. 1A)
[8] = target: FLAG-tagged SIRT1 (ectopically expressed in HEK293 cells) (UniProt Q96EB6); test: reciprocal co-immunoprecipitation in transfected HEK293 cells, Western blot (FIG. 1A)
[9] = target: FLAG-tagged SIRT1 (ectopically expressed in HEK293 cells) (UniProt Q96EB6); test: anti-FLAG co-immunoprecipitation in HEK293 cells treated with resveratrol (FIGS. 3D, 3E)
[10] = target: FLAG-tagged SIRT1 (ectopically expressed in HEK293 cells) (UniProt Q96EB6); test: co-immunoprecipitation in HEK293 cells expressing FLAG-SIRT1 with lamin A or lamin C (FIG. 1F)
[11] = target: FLAG-tagged SIRT1 (ectopically expressed in HEK293 cells) (UniProt Q96EB6); test: anti-FLAG co-immunoprecipitation in transfected HEK293 cells, Western blot and quantification (FIGS. 1G, 1H)
[12] = target: FLAG-tagged SIRT1 (ectopically expressed in HEK293 cells) (UniProt Q96EB6); test: anti-FLAG co-immunoprecipitation in co-transfected HEK293 cells treated with resveratrol, Western blot (FIG. 3D)
[13] = target: T1, endogenous SIRT1 of mouse bone marrow stromal cells and mouse embryonic fibroblasts (mouse) (UniProt Q923E4); test: anti-SIRT1 co-immunoprecipitation in Zmpste24^-/- BMSCs with or without resveratrol, immunoblot (FIG. 4C)
T1 sequence (looked up): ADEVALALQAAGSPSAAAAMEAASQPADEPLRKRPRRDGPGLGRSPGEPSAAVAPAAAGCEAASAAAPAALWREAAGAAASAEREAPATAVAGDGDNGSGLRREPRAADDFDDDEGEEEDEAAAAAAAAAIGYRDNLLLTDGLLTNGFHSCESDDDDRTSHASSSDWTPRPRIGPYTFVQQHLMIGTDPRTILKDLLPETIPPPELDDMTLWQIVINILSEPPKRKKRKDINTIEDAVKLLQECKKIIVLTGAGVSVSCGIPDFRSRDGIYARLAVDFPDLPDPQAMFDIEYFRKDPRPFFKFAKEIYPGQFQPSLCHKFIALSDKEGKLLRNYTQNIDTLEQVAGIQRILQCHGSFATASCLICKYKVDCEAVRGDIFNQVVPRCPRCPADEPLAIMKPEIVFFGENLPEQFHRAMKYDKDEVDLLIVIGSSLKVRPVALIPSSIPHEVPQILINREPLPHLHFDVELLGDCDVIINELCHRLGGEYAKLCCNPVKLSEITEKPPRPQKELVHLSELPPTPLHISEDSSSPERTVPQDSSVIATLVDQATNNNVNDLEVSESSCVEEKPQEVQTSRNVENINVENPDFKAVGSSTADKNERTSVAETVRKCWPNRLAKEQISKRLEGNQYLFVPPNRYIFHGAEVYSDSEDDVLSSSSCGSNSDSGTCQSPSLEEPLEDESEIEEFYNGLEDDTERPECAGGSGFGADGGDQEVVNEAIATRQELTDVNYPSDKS

- binding [1]: binds
- binding [2]: binds
Substance: endogenous lamin A of HEK293 cells (from UniProt P02545 1-646)

- binding [3]: binds
- binding [4]: binds
- binding [5]: binds
- binding [6]: binds
Substance: recombinant human lamin A (Diatheva, Italy) (from UniProt P02545 1-646)

- binding [7]: binds
- binding [8]: binds
- binding [9]: binds
- binding [10]: binds
- binding [11]: binds
- binding [12]: binds
Substance: wild-type lamin A (ectopically expressed in HEK293 cells) (from UniProt P02545 1-646)

- binding [13]: binds
Substance: prelamin A of Zmpste24^-/- mouse bone marrow stromal cells (from UniProt P48678 1-662)
